Reference: the supplement of paper PMC6411743
± gives the standard deviation of the averaged measurements. The list shows a part of the results.

Sequences of proteins named here, by UniProt entry; tags and fusion partners are left off. A change or cut given only in a name is not applied to a line headed by its entry.
UniProt P06454: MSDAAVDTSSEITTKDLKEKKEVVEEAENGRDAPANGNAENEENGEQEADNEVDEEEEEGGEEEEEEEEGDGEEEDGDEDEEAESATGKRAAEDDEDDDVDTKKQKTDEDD
UniProt Q96FF9: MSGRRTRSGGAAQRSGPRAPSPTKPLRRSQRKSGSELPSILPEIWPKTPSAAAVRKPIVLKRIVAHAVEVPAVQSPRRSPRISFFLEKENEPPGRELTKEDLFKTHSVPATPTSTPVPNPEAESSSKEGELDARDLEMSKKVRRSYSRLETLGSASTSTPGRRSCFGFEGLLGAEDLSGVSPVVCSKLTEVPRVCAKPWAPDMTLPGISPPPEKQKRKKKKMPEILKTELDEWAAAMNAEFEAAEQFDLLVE
UniProt A8MWD9, whole entry, looked up: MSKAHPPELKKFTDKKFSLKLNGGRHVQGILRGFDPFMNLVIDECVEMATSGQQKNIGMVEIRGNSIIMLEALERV
UniProt P68366, whole entry: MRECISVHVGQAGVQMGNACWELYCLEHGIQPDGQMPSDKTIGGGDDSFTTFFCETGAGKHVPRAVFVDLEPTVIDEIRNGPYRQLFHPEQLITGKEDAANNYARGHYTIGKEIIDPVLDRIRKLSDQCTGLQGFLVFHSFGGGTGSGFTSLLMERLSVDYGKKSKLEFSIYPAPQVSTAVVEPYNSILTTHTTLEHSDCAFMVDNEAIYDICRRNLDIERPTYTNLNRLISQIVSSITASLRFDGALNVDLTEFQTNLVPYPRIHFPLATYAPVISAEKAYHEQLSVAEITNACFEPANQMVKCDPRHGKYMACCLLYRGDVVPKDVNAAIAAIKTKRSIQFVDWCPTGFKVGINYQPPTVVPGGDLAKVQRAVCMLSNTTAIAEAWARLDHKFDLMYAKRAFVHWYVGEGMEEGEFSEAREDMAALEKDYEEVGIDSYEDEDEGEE
UniProt P78330: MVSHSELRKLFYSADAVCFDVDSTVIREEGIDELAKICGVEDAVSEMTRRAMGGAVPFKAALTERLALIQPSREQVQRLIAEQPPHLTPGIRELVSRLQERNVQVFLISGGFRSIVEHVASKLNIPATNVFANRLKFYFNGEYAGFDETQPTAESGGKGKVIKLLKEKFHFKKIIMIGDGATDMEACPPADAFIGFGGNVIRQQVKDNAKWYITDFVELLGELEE
UniProt Q9NX63: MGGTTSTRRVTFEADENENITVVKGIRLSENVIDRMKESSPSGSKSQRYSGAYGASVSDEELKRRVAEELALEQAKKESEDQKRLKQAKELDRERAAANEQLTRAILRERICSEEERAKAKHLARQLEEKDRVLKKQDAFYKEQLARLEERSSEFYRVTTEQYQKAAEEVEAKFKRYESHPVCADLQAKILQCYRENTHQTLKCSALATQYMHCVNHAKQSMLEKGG
UniProt Q6P087: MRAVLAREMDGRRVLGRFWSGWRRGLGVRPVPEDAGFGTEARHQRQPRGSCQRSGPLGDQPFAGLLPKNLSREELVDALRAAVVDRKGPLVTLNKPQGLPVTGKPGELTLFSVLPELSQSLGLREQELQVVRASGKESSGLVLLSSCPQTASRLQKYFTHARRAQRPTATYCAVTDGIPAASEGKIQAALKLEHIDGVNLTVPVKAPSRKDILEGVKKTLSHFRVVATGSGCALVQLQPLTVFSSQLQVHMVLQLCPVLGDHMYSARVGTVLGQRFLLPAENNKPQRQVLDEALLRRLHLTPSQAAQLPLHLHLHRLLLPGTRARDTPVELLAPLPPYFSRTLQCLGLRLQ
UniProt Q5TKA1: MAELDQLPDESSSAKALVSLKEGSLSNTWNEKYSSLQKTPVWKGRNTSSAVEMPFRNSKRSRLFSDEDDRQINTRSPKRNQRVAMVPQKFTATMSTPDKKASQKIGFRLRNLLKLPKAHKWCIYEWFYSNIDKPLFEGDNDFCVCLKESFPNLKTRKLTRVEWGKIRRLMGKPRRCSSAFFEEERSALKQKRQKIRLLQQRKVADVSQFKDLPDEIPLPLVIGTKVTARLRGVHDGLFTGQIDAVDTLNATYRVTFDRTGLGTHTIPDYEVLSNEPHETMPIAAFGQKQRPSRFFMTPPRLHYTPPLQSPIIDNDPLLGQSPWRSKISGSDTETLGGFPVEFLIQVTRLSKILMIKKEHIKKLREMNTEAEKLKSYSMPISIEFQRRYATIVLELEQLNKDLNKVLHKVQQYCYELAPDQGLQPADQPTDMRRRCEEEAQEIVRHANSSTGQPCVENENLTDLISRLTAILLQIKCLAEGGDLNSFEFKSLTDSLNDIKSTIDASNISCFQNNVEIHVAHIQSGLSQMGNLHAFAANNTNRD
UniProt Q9H098: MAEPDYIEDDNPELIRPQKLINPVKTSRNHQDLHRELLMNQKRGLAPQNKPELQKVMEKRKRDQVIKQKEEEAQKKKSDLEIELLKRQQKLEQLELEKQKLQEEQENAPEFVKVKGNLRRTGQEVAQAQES
UniProt P42892: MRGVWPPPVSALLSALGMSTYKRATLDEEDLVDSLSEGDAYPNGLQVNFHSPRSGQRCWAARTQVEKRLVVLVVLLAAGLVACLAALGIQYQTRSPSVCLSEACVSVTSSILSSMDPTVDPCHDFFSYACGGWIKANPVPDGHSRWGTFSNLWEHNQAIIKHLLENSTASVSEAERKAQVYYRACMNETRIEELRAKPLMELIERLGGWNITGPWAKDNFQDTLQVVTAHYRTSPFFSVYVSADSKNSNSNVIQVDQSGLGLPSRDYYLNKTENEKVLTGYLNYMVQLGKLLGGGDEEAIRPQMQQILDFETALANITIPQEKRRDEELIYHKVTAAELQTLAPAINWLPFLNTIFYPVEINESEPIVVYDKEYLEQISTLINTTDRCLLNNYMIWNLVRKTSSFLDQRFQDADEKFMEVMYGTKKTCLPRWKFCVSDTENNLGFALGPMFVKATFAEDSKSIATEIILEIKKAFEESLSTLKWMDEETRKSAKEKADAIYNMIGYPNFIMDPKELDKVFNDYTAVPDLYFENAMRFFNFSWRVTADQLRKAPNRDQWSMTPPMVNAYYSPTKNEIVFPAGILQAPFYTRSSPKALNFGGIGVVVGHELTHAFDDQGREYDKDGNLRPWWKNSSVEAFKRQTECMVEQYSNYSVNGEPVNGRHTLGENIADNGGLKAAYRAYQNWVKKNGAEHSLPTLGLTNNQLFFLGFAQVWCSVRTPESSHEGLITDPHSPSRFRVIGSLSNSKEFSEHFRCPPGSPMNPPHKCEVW
UniProt Q15369, whole entry: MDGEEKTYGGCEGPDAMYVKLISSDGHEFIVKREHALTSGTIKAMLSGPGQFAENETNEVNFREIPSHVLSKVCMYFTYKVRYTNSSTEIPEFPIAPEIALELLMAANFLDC
UniProt O95071: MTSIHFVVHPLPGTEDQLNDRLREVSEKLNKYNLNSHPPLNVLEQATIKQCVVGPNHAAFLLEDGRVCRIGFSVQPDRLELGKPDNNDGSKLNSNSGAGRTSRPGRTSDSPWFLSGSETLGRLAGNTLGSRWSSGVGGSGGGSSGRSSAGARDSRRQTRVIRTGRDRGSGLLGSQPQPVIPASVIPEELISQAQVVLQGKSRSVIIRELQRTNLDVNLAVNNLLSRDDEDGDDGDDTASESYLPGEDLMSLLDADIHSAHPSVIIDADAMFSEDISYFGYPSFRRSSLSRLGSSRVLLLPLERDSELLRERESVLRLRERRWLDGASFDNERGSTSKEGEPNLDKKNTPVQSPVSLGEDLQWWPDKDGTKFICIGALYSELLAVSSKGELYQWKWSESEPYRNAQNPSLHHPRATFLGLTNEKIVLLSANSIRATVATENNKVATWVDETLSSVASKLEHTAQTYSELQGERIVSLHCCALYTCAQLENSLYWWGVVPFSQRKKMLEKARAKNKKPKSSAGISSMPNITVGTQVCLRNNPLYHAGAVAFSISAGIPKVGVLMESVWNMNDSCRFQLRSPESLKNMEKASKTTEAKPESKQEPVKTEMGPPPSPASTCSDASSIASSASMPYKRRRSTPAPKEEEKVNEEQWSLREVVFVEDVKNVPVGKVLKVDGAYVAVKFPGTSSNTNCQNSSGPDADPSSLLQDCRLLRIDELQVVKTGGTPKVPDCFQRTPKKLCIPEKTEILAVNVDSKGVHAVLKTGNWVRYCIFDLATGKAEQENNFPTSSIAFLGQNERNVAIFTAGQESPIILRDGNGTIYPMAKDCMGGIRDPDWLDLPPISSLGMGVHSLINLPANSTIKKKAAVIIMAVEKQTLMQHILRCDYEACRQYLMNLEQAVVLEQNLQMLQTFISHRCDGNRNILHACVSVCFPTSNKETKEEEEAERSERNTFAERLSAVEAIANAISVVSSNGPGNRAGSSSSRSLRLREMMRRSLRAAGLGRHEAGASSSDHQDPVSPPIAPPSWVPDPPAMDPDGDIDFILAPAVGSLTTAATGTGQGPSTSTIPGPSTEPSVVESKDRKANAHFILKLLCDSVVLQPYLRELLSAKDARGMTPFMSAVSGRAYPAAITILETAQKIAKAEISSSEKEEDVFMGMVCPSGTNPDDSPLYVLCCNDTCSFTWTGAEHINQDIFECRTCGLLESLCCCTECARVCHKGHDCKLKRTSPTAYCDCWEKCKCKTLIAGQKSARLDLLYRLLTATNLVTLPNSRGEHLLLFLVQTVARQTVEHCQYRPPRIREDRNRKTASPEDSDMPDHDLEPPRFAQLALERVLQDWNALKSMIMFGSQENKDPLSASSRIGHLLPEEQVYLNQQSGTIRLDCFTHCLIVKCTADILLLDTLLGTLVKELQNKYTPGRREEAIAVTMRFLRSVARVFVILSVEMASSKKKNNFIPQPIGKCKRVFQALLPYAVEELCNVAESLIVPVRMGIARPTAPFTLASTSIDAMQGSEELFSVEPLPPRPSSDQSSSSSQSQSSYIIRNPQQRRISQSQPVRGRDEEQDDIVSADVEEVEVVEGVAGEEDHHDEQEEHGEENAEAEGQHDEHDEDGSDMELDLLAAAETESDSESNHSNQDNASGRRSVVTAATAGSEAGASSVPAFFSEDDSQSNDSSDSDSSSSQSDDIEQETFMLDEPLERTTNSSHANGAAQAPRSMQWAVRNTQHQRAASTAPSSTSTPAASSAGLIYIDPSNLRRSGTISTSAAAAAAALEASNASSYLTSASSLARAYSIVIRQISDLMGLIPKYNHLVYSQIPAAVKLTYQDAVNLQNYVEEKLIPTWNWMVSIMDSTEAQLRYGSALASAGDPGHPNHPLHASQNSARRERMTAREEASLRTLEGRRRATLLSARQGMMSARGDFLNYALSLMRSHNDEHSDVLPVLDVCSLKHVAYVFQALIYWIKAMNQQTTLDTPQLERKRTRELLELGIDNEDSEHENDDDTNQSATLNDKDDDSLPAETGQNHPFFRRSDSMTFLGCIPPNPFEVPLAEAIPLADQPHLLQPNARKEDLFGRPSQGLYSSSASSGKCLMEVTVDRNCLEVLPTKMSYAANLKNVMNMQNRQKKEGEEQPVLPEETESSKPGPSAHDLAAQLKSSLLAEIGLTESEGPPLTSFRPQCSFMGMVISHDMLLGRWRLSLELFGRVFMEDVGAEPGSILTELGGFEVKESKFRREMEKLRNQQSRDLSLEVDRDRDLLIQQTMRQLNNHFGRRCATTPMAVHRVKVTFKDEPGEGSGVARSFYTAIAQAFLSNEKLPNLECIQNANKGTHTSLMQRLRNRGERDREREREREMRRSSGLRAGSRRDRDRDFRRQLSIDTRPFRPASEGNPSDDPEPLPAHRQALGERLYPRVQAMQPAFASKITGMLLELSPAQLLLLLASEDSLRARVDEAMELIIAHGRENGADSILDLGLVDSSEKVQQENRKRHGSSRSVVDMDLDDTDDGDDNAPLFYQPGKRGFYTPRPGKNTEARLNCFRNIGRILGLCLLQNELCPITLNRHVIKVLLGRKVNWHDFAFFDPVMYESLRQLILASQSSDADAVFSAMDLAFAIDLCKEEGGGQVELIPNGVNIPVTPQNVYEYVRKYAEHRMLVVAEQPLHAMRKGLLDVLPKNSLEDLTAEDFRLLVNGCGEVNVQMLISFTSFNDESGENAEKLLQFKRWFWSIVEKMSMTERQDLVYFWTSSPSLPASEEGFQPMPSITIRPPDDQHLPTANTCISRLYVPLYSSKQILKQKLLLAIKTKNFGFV
UniProt Q9Y3B2, whole entry: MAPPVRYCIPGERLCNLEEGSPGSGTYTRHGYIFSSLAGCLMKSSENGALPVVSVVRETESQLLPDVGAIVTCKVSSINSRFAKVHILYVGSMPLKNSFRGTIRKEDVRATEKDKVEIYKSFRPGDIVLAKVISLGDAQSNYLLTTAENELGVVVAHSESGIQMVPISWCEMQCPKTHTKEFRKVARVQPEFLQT

Compound: Nc1nc2c(ncn2[C@@H]2O[C@H](COP(=O)(O)OP(=O)(O)OP(=O)(O)O)[C@@H](O)[C@H]2O)c(=O)[nH]1 [guanosine triphosphate]
Experiment: NP40-soluble protein abundance relative to vehicle (solubility fold change) (ratio); higher = more soluble protein in presence of GTP
Outline: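 Each value is a fold change relative to the detergent-processed vehicle, calculated per replicate from vsn-normalised intensities. Jurkat crude lysate received eight concentrations (0.1 to 10 mM) for 10 min at room temperature and 3 min at 37 °C, then was solubilised in 0.8% NP40 with benzonase (60 min, 4 °C). The ultracentrifuged supernatant was TMT-labelled and run by LC-MS/MS in three independent experiments.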

Target	NP40-soluble protein abundance (concentration: 0.1mM)	NP40-soluble protein abundance (concentration: 0.5mM)	NP40-soluble protein abundance (concentration: 1mM)	NP40-soluble protein abundance (concentration: 2mM)	NP40-soluble protein abundance (concentration: 4mM)	NP40-soluble protein abundance (concentration: 6mM)	NP40-soluble protein abundance (concentration: 8mM)	NP40-soluble protein abundance (concentration: 10mM)
B8ZZQ6 and related entries (UniProt P06454)	1.069 ± 0.0068	0.988 ± 0.015	0.987 ± 0.036	0.946 ± 0.07	0.948 ± 0.063	0.988 ± 0.022	1.12 ± 0.1	1.05 ± 0.085
A8MTY9 and related entries (UniProt O14972)	1.06 ± 0.1	1 ± 0.12	0.994 ± 0.079	0.988 ± 0.19	1.01 ± 0.2	1.02 ± 0.095	0.987 ± 0.16	1 ± 0.11
A8MXP9 and related entries (UniProt P43243)	0.954 ± 0.028	0.998 ± 0.036	1.04 ± 0.025	1.02 ± 0.054	1.02 ± 0.032	1.04 ± 0.047	1.06 ± 0.056	1.06 ± 0.072
B5MBX0 and related entries (UniProt Q96FF9)	0.881 ± 0.081	0.995 ± 0.11	1.1 ± 0.078	1.09 ± 0.19	1.04 ± 0.13	1.06 ± 0.17	1.06 ± 0.038	1.09 ± 0.11
A8MWD9 and related entries (UniProt P62308+A8MWD9)	0.961 ± 0.1	1.02 ± 0.057	1.14 ± 0.086	1.19 ± 0.045	1.24 ± 0.078	1.28 ± 0.053	1.33 ± 0.084	1.44 ± 0.16
C9JJQ8 and related entries (UniProt P68366)	1.11 ± 0.033	0.96 ± 0.058	1.05 ± 0.059	0.984 ± 0.05	1.09 ± 0.026	1.02 ± 0.02	1.02 ± 0.032	0.992 ± 0.047
C9JBI3 and related entries (UniProt P78330)	1 ± 0.019	0.962 ± 0.012	0.958 ± 0.033	0.966 ± 0.047	0.928 ± 0.037	0.922 ± 0.019	0.896 ± 0.06	0.897 ± 0.027
C9J494 and related entries (UniProt Q9H000)	0.976 ± 0.011	0.995 ± 0.006	0.966 ± 0.051	0.947 ± 0.056	0.919 ± 0.044	1.01 ± 0.056	0.963 ± 0.024	0.93 ± 0.053
B8ZZ77 and related entries (UniProt Q9H2H8)	0.966 ± 0.1	0.96 ± 0.098	0.927 ± 0.1	0.913 ± 0.11	0.934 ± 0.17	0.913 ± 0.12	0.937 ± 0.14	0.91 ± 0.088
C9JRZ6 and related entries (UniProt Q9NX63)	0.919 ± 0.081	0.953 ± 0.055	1.07 ± 0.057	1.06 ± 0.02	1.12 ± 0.035	1.13 ± 0.069	1.16 ± 0.061	1.15 ± 0.12
UniProt A6NED2 and related entries	1.05 ± 0.095	1.042 ± 0.0065	1.06 ± 0.026	1.09 ± 0.13	1.04 ± 0.077	1.08 ± 0.094	1.009 ± 0.009	1.018 ± 0.0084
B1AKL4 and related entries (UniProt Q9NRA8)	1.07 ± 0.031	1.02 ± 0.02	1.11 ± 0.036	1.07 ± 0.043	1.12 ± 0.04	1.09 ± 0.042	1.15 ± 0.063	1.14 ± 0.072
C9JM75 and related entries (UniProt Q6P087)	1.09 ± 0.063	1.14 ± 0.025	1.09 ± 0.076	1.19 ± 0.089	1.24 ± 0.061	1.23 ± 0.13	1.22 ± 0.036	1.23 ± 0.041
B7Z863 and related entries (UniProt Q14BN4)	1.05 ± 0.022	1.031 ± 0.0042	1.05 ± 0.025	1.02 ± 0.028	1.04 ± 0.022	1.03 ± 0.017	1.1 ± 0.095	1.05 ± 0.092
C9J5J4 and related entries (UniProt Q5TKA1)	1.04 ± 0.095	1.02 ± 0.053	1.07 ± 0.069	1.08 ± 0.016	1.07 ± 0.071	1.1 ± 0.052	1.14 ± 0.13	1.09 ± 0.024
B7Z2L0 and related entries (UniProt Q9UHQ4)	0.927 ± 0.066	0.956 ± 0.071	0.975 ± 0.051	0.937 ± 0.097	0.93 ± 0.066	0.918 ± 0.058	0.972 ± 0.059	0.99 ± 0.071
C9J066 and related entries (UniProt Q8N4C6)	1.06 ± 0.053	0.986 ± 0.032	1.04 ± 0.028	1.02 ± 0.044	1.022 ± 0.01	1.12 ± 0.087	1.03 ± 0.19	1.11 ± 0.18
B7ZBM8 and related entries (UniProt O14662)	0.991 ± 0.059	0.9563 ± 0.0062	1.011 ± 0.0054	1.02 ± 0.018	1.07 ± 0.029	1.05 ± 0.048	1.02 ± 0.13	1.07 ± 0.057
C9J6N5 and related entries (UniProt Q9H098)	1.02 ± 0.079	1.05 ± 0.046	1.11 ± 0.15	0.994 ± 0.073	1.02 ± 0.058	0.982 ± 0.087	1.11 ± 0.14	1.11 ± 0.14
A8MQB8 and related entries (UniProt Q06787)	1.05 ± 0.041	1.15 ± 0.048	1.05 ± 0.065	1.24 ± 0.0061	1.41 ± 0.093	1.71 ± 0.037	1.8 ± 0.048	2.1 ± 0.11
C9J6U3 and related entries (UniProt O60879)	0.99 ± 0.043	1 ± 0.04	0.994 ± 0.063	0.983 ± 0.074	0.974 ± 0.058	0.985 ± 0.063	0.993 ± 0.044	0.978 ± 0.043
B4DKB2 and related entries (UniProt P42892)	1.03 ± 0.081	1.15 ± 0.062	1.28 ± 0.036	1.35 ± 0.11	1.36 ± 0.026	1.41 ± 0.076	1.45 ± 0.099	1.42 ± 0.065
C9J5C3 and related entries (UniProt Q9BUL8)	0.918 ± 0.04	0.918 ± 0.073	0.933 ± 0.033	0.905 ± 0.069	0.908 ± 0.075	0.906 ± 0.071	0.901 ± 0.058	0.906 ± 0.067
E5RHG8 and related entries (UniProt Q15369)	0.893 ± 0.015	0.912 ± 0.017	0.927 ± 0.017	0.91 ± 0.017	0.918 ± 0.031	0.934 ± 0.019	0.903 ± 0.02	0.906 ± 0.035
E7EMW7 and related entries (UniProt O95071)	1.09 ± 0.081	1.19 ± 0.12	1.24 ± 0.21	1.33 ± 0.25	1.32 ± 0.28	1.31 ± 0.29	1.31 ± 0.29	1.26 ± 0.3
B1AMU7 and related entries (UniProt Q9Y3B2)	1.02 ± 0.037	1.07 ± 0.04	1.01 ± 0.056	1.1 ± 0.11	1.18 ± 0.11	1.22 ± 0.12	1.17 ± 0.062	1.18 ± 0.068

Two entries from above, in markdown:

| Target | NP40-soluble protein abundance (concentration: 0.1mM) | NP40-soluble protein abundance (concentration: 0.5mM) | NP40-soluble protein abundance (concentration: 1mM) | NP40-soluble protein abundance (concentration: 2mM) | NP40-soluble protein abundance (concentration: 4mM) | NP40-soluble protein abundance (concentration: 6mM) | NP40-soluble protein abundance (concentration: 8mM) | NP40-soluble protein abundance (concentration: 10mM) |
| --- | --- | --- | --- | --- | --- | --- | --- | --- |
| B5MBX0 and related entries (UniProt Q96FF9) | 0.881 ± 0.081 | 0.995 ± 0.11 | 1.1 ± 0.078 | 1.09 ± 0.19 | 1.04 ± 0.13 | 1.06 ± 0.17 | 1.06 ± 0.038 | 1.09 ± 0.11 |
| A8MWD9 and related entries (UniProt P62308+A8MWD9) | 0.961 ± 0.1 | 1.02 ± 0.057 | 1.14 ± 0.086 | 1.19 ± 0.045 | 1.24 ± 0.078 | 1.28 ± 0.053 | 1.33 ± 0.084 | 1.44 ± 0.16 |
